Assay [1] deals with CHK2, Flag-tagged and Myc-tagged copies co-expressed (UniProt O96017). Description: co-IP.
In assay [2] the target is T1, HA-tagged OGT (O-GlcNAc transferase), full length (UniProt O15294).
T1 sequence: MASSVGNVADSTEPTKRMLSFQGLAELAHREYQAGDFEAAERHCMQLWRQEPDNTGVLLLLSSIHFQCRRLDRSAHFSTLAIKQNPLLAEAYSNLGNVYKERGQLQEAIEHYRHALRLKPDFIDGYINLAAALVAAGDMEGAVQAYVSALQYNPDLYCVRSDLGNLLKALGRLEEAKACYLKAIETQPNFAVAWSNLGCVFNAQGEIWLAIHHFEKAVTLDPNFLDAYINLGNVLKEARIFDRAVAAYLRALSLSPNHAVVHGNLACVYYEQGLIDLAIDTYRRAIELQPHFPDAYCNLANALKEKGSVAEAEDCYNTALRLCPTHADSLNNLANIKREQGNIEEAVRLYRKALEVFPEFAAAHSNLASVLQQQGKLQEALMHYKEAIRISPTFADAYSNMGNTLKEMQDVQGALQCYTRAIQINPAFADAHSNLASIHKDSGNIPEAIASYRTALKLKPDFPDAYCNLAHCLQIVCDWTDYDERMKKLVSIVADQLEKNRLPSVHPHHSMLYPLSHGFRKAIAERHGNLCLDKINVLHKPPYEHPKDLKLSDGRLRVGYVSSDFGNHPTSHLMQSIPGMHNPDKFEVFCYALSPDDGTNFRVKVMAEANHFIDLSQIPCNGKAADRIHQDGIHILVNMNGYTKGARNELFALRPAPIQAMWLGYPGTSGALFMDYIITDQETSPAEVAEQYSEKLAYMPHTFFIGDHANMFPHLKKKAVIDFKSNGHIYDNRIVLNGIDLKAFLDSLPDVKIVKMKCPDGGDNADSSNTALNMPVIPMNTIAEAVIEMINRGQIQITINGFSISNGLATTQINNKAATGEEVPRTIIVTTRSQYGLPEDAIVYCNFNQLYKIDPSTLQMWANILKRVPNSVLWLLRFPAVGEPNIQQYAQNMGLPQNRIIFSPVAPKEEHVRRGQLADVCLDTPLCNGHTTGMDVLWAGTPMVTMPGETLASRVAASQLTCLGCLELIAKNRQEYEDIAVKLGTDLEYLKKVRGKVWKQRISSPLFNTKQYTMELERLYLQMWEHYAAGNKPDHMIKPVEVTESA
The experiment in a line: co-IP.

By UniProt entry, the sequences of proteins in these tests, tags left out. Where a name states a change or a piece, a line headed by the entry shows the natural chain unless it says otherwise.
UniProt O96017, whole entry: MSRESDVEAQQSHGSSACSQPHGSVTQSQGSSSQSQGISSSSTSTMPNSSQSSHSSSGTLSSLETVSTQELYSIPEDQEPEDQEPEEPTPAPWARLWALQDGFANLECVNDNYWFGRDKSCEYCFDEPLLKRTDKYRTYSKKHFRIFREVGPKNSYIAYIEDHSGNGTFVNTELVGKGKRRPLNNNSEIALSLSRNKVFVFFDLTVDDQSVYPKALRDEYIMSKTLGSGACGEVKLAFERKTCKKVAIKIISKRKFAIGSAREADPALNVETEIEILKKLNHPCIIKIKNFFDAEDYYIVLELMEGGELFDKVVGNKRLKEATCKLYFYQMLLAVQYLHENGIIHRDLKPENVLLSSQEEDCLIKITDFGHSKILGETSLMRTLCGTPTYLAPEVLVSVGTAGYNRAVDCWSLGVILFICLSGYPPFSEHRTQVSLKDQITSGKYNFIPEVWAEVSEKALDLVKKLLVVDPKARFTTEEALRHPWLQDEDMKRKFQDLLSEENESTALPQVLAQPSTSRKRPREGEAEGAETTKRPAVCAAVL

The target in assay [3] is T2, O-GlcNAc transferase (OGT), endogenous (human (endogenous in PLC/PRF/5)) (UniProt O15294).
T2 sequence: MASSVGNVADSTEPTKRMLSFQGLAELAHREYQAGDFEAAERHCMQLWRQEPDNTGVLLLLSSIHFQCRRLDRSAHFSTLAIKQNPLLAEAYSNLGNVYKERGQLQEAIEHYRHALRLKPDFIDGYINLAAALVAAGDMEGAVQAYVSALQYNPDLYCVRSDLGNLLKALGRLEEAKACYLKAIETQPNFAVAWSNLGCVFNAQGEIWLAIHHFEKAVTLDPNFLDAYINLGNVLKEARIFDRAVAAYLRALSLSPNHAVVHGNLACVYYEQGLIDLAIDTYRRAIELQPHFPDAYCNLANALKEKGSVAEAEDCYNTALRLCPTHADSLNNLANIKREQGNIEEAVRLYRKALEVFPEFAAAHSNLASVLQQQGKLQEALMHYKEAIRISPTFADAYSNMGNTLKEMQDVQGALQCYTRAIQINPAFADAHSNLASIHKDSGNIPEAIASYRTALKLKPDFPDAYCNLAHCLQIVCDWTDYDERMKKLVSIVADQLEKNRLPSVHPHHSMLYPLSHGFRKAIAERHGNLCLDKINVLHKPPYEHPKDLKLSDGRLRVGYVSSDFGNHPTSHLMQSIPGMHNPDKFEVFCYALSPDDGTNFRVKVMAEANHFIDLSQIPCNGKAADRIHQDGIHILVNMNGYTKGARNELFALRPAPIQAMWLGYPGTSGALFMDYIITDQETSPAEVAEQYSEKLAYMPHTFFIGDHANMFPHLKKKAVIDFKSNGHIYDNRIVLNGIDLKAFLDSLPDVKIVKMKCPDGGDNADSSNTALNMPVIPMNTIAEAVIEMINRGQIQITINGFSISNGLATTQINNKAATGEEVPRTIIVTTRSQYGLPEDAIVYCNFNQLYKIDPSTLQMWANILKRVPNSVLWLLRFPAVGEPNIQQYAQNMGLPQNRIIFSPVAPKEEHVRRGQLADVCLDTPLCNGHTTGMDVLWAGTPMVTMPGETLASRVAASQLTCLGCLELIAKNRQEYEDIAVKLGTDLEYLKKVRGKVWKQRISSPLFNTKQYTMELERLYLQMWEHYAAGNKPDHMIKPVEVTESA
Description: co-IP.

Assay [4] addresses checkpoint kinase 2 (CHK2), endogenous (human (endogenous in PLC/PRF/5)) (UniProt O96017). Description: cross-linking.
The target in assay [5] is Flag-tagged CHK2, full length (aa 1-543) (UniProt O96017). The experiment in a line: co-IP.

Results are given in words; binding and its absence hold for the method and conditions named. In cells and extracts the contact can be indirect. Some binding calls cover weakened binding; strength is not graded here. For some of these results: Sequences can lack the tags named with a protein.

Consider “CHK2, Flag-tagged and Myc-tagged copies co-expressed (from UniProt O96017-1 1-543)”, for which the binding result in assay [1] was “binds”. Turning to “Flag-tagged CHK2 ΔC truncation mutant (aa 1-221) (from UniProt O96017-1 1-221) (domain or fragment)”, the binding result in assay [2] is “no binding”. On the same count and under the same terms, the result for “Flag-tagged CHK2 ΔN truncation mutant (aa 69-543) (from UniProt O96017-1 69-543) (domain or fragment)” reads “binds”; that for “Flag-tagged CHK2, full length (aa 1-543) (from UniProt O96017-1 1-543)”, “binds”.

“checkpoint kinase 2 (CHK2), endogenous (from UniProt O96017 1-543)”: the binding result in assay [3] and in assay [4] was “binds” each time.

B1: HA-tagged OGT (O-GlcNAc transferase), full length (protein, UniProt O15294-1 1-1046)
chain: MASSVGNVADSTEPTKRMLSFQGLAELAHREYQAGDFEAAERHCMQLWRQEPDNTGVLLLLSSIHFQCRRLDRSAHFSTLAIKQNPLLAEAYSNLGNVYKERGQLQEAIEHYRHALRLKPDFIDGYINLAAALVAAGDMEGAVQAYVSALQYNPDLYCVRSDLGNLLKALGRLEEAKACYLKAIETQPNFAVAWSNLGCVFNAQGEIWLAIHHFEKAVTLDPNFLDAYINLGNVLKEARIFDRAVAAYLRALSLSPNHAVVHGNLACVYYEQGLIDLAIDTYRRAIELQPHFPDAYCNLANALKEKGSVAEAEDCYNTALRLCPTHADSLNNLANIKREQGNIEEAVRLYRKALEVFPEFAAAHSNLASVLQQQGKLQEALMHYKEAIRISPTFADAYSNMGNTLKEMQDVQGALQCYTRAIQINPAFADAHSNLASIHKDSGNIPEAIASYRTALKLKPDFPDAYCNLAHCLQIVCDWTDYDERMKKLVSIVADQLEKNRLPSVHPHHSMLYPLSHGFRKAIAERHGNLCLDKINVLHKPPYEHPKDLKLSDGRLRVGYVSSDFGNHPTSHLMQSIPGMHNPDKFEVFCYALSPDDGTNFRVKVMAEANHFIDLSQIPCNGKAADRIHQDGIHILVNMNGYTKGARNELFALRPAPIQAMWLGYPGTSGALFMDYIITDQETSPAEVAEQYSEKLAYMPHTFFIGDHANMFPHLKKKAVIDFKSNGHIYDNRIVLNGIDLKAFLDSLPDVKIVKMKCPDGGDNADSSNTALNMPVIPMNTIAEAVIEMINRGQIQITINGFSISNGLATTQINNKAATGEEVPRTIIVTTRSQYGLPEDAIVYCNFNQLYKIDPSTLQMWANILKRVPNSVLWLLRFPAVGEPNIQQYAQNMGLPQNRIIFSPVAPKEEHVRRGQLADVCLDTPLCNGHTTGMDVLWAGTPMVTMPGETLASRVAASQLTCLGCLELIAKNRQEYEDIAVKLGTDLEYLKKVRGKVWKQRISSPLFNTKQYTMELERLYLQMWEHYAAGNKPDHMIKPVEVTESA
Take B1: the binding entry in assay [5] is recorded as “binds”.

(Values after paper doi:10.1101/2020.08.06.240739.)
